The results in this text go back to paper PMC10374971, “In vivo and in vitro characterizations of melibiose permease (MelB) conformation-dependent nanobodies reveal sugar-binding mechanisms” (The Journal of Biological Chemistry, 2023).

Sequences of proteins named here, by UniProt entry; tags and fusion partners are left off. Residues count along the entry.
UniProt P30878, residues 6-476: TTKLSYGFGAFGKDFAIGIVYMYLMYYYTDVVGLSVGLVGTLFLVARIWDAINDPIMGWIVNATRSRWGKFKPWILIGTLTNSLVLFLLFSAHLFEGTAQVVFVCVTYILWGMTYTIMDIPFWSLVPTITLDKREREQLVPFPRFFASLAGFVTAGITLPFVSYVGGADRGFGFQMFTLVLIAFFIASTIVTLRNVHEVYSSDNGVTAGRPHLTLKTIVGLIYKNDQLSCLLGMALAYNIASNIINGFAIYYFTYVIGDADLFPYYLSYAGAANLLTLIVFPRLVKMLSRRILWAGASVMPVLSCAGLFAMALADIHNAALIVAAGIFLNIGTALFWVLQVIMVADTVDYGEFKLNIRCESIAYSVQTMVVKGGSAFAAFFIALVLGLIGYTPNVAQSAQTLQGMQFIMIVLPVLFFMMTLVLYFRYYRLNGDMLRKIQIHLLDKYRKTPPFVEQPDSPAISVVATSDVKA
UniProt P69783: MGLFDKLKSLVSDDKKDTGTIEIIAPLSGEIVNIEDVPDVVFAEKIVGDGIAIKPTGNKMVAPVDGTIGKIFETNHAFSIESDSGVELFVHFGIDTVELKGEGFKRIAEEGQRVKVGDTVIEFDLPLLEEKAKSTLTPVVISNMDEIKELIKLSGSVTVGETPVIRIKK

Results are given in words; binding and its absence hold for the method and conditions named. Some entries that bind do so weakly or less than the wild type. For some assays here: Where a sequence is shown, tags or fusion partners need not be part of it.

In experiment [1] the target is Salmonella enterica serovar Typhimurium melibiose permease (MelBSt), wild type (Salmonella enterica serovar Typhimurium) (UniProt P30878). Description: SEC; gel-filtration chromatography of mixed purified proteins; peak fractions analysed by SDS-15%PAGE; both purified.
The target in experiment [2] is MelR, transcription activator of the melibiose operon melAB in E. coli, two-hybrid fusions MelR:T18 and T25:MelR (E. coli) (UniProt P0ACH8). As to the kind of experiment: two-hybrid; bacterial adenylate cyclase (CyaA) T18/T25 two-hybrid in E. coli DH5α ΔcyaA; maltose MacConkey agar plates, 0.2 mM IPTG, 30 °C; red colonies positive.

Take “EIIA^Glc of the glucose-specific phosphoenolpyruvate/sugar phosphotransferase system, unphosphorylated (from UniProt P69783 1-169)”: the binding entry in experiment [1] is “binds”.

B1: MelR, transcription activator of the melibiose operon melAB in E. coli, two-hybrid fusions MelR:T18 and T25:MelR (protein, UniProt P0ACH8 1-302)
chain: MNTDTFMCSSDEKQTRSPLSLYSEYQRMEIEFRAPHIMPTSHWHGQVEVNVPFDGDVEYLINNEKVNINQGHITLFWACTPHQLTDTGTCQSMAIFNLPMHLFLSWPLDKDLINHVTHGMVIKSLATQQLSPFEVRRWQQELNSPNEQIRQLAIDEIGLMLKRFSLSGWEPILVNKTSRTHKNSVSRHAQFYVSQMLGFIAENYDQALTINDVAEHVKLNANYAMGIFQRVMQLTMKQYITAMRINHVRALLSDTDKSILDIALTAGFRSSSRFYSTFGKYVGMSPQQYRKLSQQRRQTFPG
As for B1, the binding result in experiment [2] is on record as “binds”.
